Assay results: US20230312698A1 (NANJING GENSCRIPT BIOTECH, published 2023)
Numbering of substitutions follows the chain as printed. These are yes or no findings as the source states them, for the method shown. Some entries that bind do so weakly or less than the wild type.

By UniProt entry, the sequences of proteins in these tests, tags left out. Residues count along the entry.
UniProt O15123, residues 19-496: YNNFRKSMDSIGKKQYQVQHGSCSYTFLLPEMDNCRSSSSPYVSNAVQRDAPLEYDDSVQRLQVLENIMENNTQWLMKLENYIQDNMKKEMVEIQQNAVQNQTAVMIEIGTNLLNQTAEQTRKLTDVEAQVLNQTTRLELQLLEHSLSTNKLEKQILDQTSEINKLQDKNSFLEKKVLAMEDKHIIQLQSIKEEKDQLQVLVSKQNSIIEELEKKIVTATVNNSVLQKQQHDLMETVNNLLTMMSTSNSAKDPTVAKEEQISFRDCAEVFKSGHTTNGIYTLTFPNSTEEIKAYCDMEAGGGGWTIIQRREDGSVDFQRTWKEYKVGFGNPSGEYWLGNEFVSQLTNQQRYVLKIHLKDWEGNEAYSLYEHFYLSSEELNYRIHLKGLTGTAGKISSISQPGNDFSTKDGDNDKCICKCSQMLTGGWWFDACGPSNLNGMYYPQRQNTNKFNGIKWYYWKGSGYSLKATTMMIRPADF

B1: 4D8F2 (antibody, V domains shown)
VH: DVQLQESGPGLVKPSQSLSLTCTVTGYSITSDYAWNWIRQFPGNKLEWMGYISYSGSTSYNPSLKSRISITRDTSKNQFFLQLNSVTTEDTATYYCARGVRGDMDYWGQGTSVTVSS
VL: SIVMTQTPKFLLVSAGDRVTITCKASQSVSNDVAWYQQKPGQSPKLLIYYASNRYTGVPDRFTGSGYGTDFTFTISTVQAEDLAVYFCQQDYSSPFTFGSGTKLEIK
notes: Hybridoma antibody purified with Protein-A beads
B2: 5A7B9 (antibody, V domains shown)
VH: QIQLVQSGPELKKPGETVKISCKASGYTFTNYGVNWVKQAPGKGLKWMGWINSYSGVPTYADDFKGRFAFSLETSASTAYLQINNLKNEDTATYFCARGENNYYGGSYDWGQGTTLTVSS
VL: B1 VL with F96L, S100A, I106L
notes: as for B1
B3: 42A2A6 (antibody, V domains shown)
VH: DVQLQESGPGLVKPSQSLSLTCTVTGYSITSDYAWNWIRQFPGNKLEWMGFINYSGTTSYNPSLKSRISLTRDTSKNQFFLQLNSVTTEDTATYYCARWGYSDFLYYFDYWGQGTTLTVSS
VL: QIVLSQSPAILSASPGEKVTMTCRASSSVSYIHWYQQKPGYSPKPWIYATSNLASGVPARFSGGGSGTSYSLTISRVEAEDAATYYCQQWSNNPWTFGGGTKLEIK
notes: as for B1
B4: 42C3A4 (antibody, V domains shown)
VH: EVKLEESGGGLVQPGGSMKLSCVASGITFSNYWMDWVRQSPEKGLEWVAEIRLKSNNYATHYAESVKGRFTISRDDSKNSVYLQMNNLRAEDTGIYYCTRGAPLFGGYYKGVYFDYWGQGTTLTVSS
VL: B1 VL with I2F, F10S, V13A, K24Q, D32E, N53S, T63A, S93N, F96Y, S100G
notes: as for B1
B5: 49E4C2 (antibody, V domains shown)
VH: B4 VH with N79S, G106D
VL: B1 VL with I2T, F10S, V13A, T20A, D32E, Q42L, S93N, F96Y, S100G
notes: as for B1
B6: 46F3H4 (antibody, V domains shown)
VH: EVQLHQSGPELVKPGASVKMSCKASGYTFTNYYIHWVKQSHGKSIEWIGYIYPNNGDTTYNQKFKGKATLTVDKSSSIAYMELRSLTSEDSAVYYCAVVSYSNYVAGAMDYWGQGTSVTVSS
VL: B1 VL with Y50F, F96Y, S100G
notes: as for B1
B7: 46H3H3 (antibody, V domains shown)
VH: EVKLVESGGGLVQPGGSRKLSCAASGFTFSDYGMVWVRQAPGKGLEWVAYIGSGRSTIYYADTVKGRFTISRDNPKNTLFLQMSSLRSEDTAMYYCAREDNGYSYAMDYWGQGTSVTVSS
VL: DIQMTQSPASQSASLGESVTITCLASQTIGTWLAWYQQKPGKSPQLLIYAATSLADGVPSRFSGSGSGTKFSFKISSLQAEDFVSYYCQQLYSTPLTFGAGTKLELK
notes: as for B1

Target: membrane-anchored cyno Ang2 protein expressed on CHO-K1 cells (cyno)
Assay: flow cytometry on CHO-K1 cells expressing membrane-anchored cyno Ang2

binding, binds:
B1, B2, B3, B4, B5, B6, B7

Target: membrane-anchored human Ang2 protein expressed on CHO-K1 cells (human) (UniProt O15123)
Assay: flow cytometry on CHO-K1 cells expressing membrane-anchored human Ang2

binding, binds:
B1, B2, B3, B4, B5, B6, B7
